According to patent US11161811B2, “Process for preparing Mannich base quaternary ammonium salt high-temperature resistant corrosion inhibitor and applications thereof” (SOUTHWEST PETROLEUM UNIVERSITY, priority 2018, dated 2021):

Experiment: 4 h corrosion weight loss test (corrosion inhibition performance)
Details: 1000 ppm corrosion inhibitor; for Surface morphology: P110 carbon steel after 4 h in 20% hydrochloric acid at 90° C.; for Corrosion rate: P110 carbon steel, 20% hydrochloric acid, 90° C., 4 h
Protocol: The corrosion inhibition performance of corrosion inhibitors in the embodiments 1 to 4 is determined by a 4 h corrosion weight loss test at 90° C. using 20% hydrochloric acid as a corrosive medium and P110 carbon steels. The amount of corrosion inhibitors is 1000 ppm.

SMILES | Surface morphology | Corrosion rate [gm^−2h^−1]
O=C(CC(=C(c1ccccc1)c1ccccc1)c1ccccc1)CC(/C=C/c1ccccc1)[N+]1(Cc2ccc3ccccc3c2)CCCCC1C(c1ccccc1)c1ccccc1 (centres unmarked) [Embodiment 2] | Smooth and flat | 14.71
O=C(/C=C/c1ccccc1)CC(c1cccc(-c2cccs2)c1)[N+](Cc1ccccc1)(Cc1ccccc1)Cc1ccccc1 (centres unmarked) [Embodiment 1] | Smooth and flat | 9.87
O=C(/C=C/c1ccccc1)CC(/C=C/c1ccccc1)[N+]1(C(c2ccccc2)(c2ccccc2)c2ccccc2)C=Cc2ccccc21 (centres unmarked) [Embodiment 3] | Smooth and flat | 10.16
CC(O)C[N+](Cc1ccc2ccccc2c1)(CC(C)O)C(CC(=O)CC(=C(c1ccccc1)c1ccccc1)c1ccccc1)c1cccc(-c2cccs2)c1 (centres unmarked) [Embodiment 4] | Smooth and flat | 11.47
